# Measured values reported in the supplement of paper PMC5355238.
# Counter-ions that a name gives are not always drawn. This is one part of the list. Repeats are few or missing, and single values can be far off.
# Test system: Reh
# Assay: S-phase gammaH2AX median, Z-score vs plate median (drug alone); higher = more S-phase DNA damage
# Conditions: MK1775 concentration 0 nM; 10 µM; 4 h
row,SMILES,S-phase gammaH2AX median (Z-score)
1,"O=C(O)[C@@H]1C[C@H](C(=O)O)N1 [cis-Azetidine-2,4-dicarboxylic acid]",0.0796
2,CC(C=CC(=O)NO)=CC(C)C(=O)c1ccc(N(C)C)cc1 (stereo not given) [Trichostatin A (TSA)],0.174
3,CCN(CC)CC(=O)Nc1c(C)cccc1C [Lidocaine hydrochloride],0.125
4,Nc1ncnc2c1nc(Br)n2C1OC2COP(=O)(O)O[C@@H]2C1O (stereo not given in full) [8-Bromo-cAMP sodium],0.00971
5,"Ic1ccc(N2CCN(Cc3c[nH]c4ncccc34)CC2)cc1 [L-750,667 trihydrochloride]",-0.111
6,COc1cccc2c1C(=O)c1c(O)c3c(c(O)c1C2=O)C[C@@](O)(C(C)=O)C[C@@H]3O[C@H]1C[C@H](N)[C@H](O)[C@H](C)O1 [Daunorubicin HCl (Daunomycin HCl)],-0.0754
7,CNC(=O)c1cc(Oc2ccc(NC(=O)Nc3ccc(Cl)c(C(F)(F)F)c3)cc2)ccn1 [Sorafenib (Nexavar)],-0.0824
8,O=C(Nc1cccc(C(=O)Nc2ccc(S(=O)(=O)O)c3cc(S(=O)(=O)O)cc(S(=O)(=O)O)c23)c1)Nc1cccc(C(=O)Nc2ccc(S(=O)(=O)O)c3cc(S(=O)(=O)O)cc(S(=O)(=O)O)c23)c1,-0.0166
9,N#CCNC(=O)c1ccc(-c2ccnc(Nc3ccc(N4CCOCC4)cc3)n2)cc1,0.00348
10,O=C(/C=C/c1ccc(O)cc1)c1ccc(O)cc1O [Isoliquiritigenin],0.186
11,COC1(C2=NCCN2)COc2ccccc2O1 (stereo not given),-0.174
12,CC(C)NC[C@@H](O)COc1ccc(CC(N)=O)cc1 [R(+)-Atenolol],-0.0175
13,CN(C)CCCN=c1c2ccccc2n(C)c2[nH]c(=O)n(C)c(=O)c12,0.07
14,"Nc1cc(=O)[nH]c(N)n1 [2,6-Diamino-4-pyrimidinone]",0.0693
15,N[C@@H](Cc1c[nH]c2ccccc12)C(=O)O [L-Tryptophan],-0.1
16,COc1cc2nccc(Oc3ccc(NC(=O)NC4CC4)c(Cl)c3)c2cc1C(N)=O [E7080 (Lenvatinib)],0.0715
17,CCn1c(=O)[nH]c2cc(Cl)c(Cl)cc21,-0.0346
18,CC[C@@H]1C(=O)OC[C@@H]1Cc1cncn1C [Pilocarpine nitrate],-0.00473
19,CC[C@@H]1C(=O)OC[C@@H]1Cc1cncn1C [(+)-Pilocarpine hydrochloride],-0.0946
20,CN1C(=O)CC[C@H]1c1cccnc1 [(-)-Cotinine],-0.068

row,SMILES,S-phase gammaH2AX median (Z-score)
1,COC(=O)[C@H](NC(=O)c1cc(-c2ccccc2)nc2ccccc12)c1ccccc1,0.0472
2,N#Cc1cc2nc(O)c(O)nc2cc1[N+](=O)[O-] [CNQX disodium],-0.0369
3,C[C@@H](CN1CCC(Cc2ccccc2)CC1)[C@@H](O)c1ccc(O)cc1 [Ro 25-6981 hydrochloride],-0.0851
4,N[C@@H](CS(=O)O)C(=O)O [L-Cysteinesulfinic Acid],0.00971
5,Cc1cc(NC(=O)Nc2ccc3c(ccn3C)c2)sn1,0.233
6,Cc1ccc(=O)n(-c2ccccc2)c1 [Pirfenidone],-0.116
7,O=C(Cc1ccc(Cl)c(Cl)c1)OCCN1CCCC1 [AC 915 oxalate],0.0524
8,Nc1cc(Cl)c(NC2=NCCN2)c(Cl)c1 [p-Aminoclonidine hydrochloride],-0.068
9,NO [Hydroxylamine hydrochloride],-0.0945
10,O=c1[nH]c2ccccc2n1CCCN1CCN(C(c2ccccc2)c2ccccc2)CC1 [Oxatomide],-0.0118
11,Nc1nc(Cl)nc2c1ncn2[C@@H]1O[C@H](CO)[C@@H](O)[C@H]1O [2-Chloroadenosine],0.551
12,CC(C)OC(=O)C1=CN(C(=O)c2ccc(F)c(F)c2)CC(C)(C)c2c1[nH]c1ccccc21,0.134
13,Cc1ccc(F)c(NC(=O)Nc2ccc(-c3cccc4[nH]nc(N)c34)cc2)c1 [Linifanib (ABT-869)],-0.107
14,C[N+](C)(C)CC(=O)O [Betaine hydrochloride],0.0447
15,CC[C@H](CO)Nc1nc(NCc2ccccc2)c2ncn(C(C)C)c2n1 [Roscovitine],-0.464
16,"CC[C@H](CO)Nc1nc(NCc2ccccc2)c2ncn(C(C)C)c2n1 [Roscovitine (Seliciclib, CYC202)]",-0.14
17,Cc1ccc(NC(=O)c2cccc(C(C)(C)C#N)c2)cc1Nc1ccc2ncn(C)c(=O)c2c1,0.07
18,OCCN(CCO)c1nc(N2CCCCC2)c2nc(N(CCO)CCO)nc(N3CCCCC3)c2n1 [Dipyridamole],-0.142
19,"NC(N)=NC(=O)c1nc(Cl)c(N2CCCCCC2)nc1N [5-(N,N-hexamethylene)amiloride]",1.02
20,CC1=C(CC(=O)O)c2cc(F)ccc2/C1=C\c1ccc(S(C)(=O)=O)cc1 [Sulindac sulfone],0.133

# Exported as tab-separated lines: part of the list above
row	SMILES	S-phase gammaH2AX median (Z-score)
12	CC(C)OC(=O)C1=CN(C(=O)c2ccc(F)c(F)c2)CC(C)(C)c2c1[nH]c1ccccc21	0.134
15	CC[C@H](CO)Nc1nc(NCc2ccccc2)c2ncn(C(C)C)c2n1 [Roscovitine]	-0.464
